Source: PubChem BioAssay AID504791 (Drosophila RNAi Screening Center, 2011)

Assay: 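Factors in Argonaute-based small RNA production and activity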 (primary screen)
Cell system: Drosophila S2-derived reporter cells
Reagents: long dsRNA against Drosophila genes, about 150-250 ng dsRNA per well (siRNA assay); about 80-120 ng (miRNA assay)
Duration: about 5 days (siRNA assay); about 4 days (miRNA assay)
Conditions: copper sulfate induction of reporters: 25 µM (siRNA assay); 200 mM stated (miRNA assay), 1-2 days before reading
Measurement: 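Dual luciferase assay: Renilla to firefly signal ratio in each well, scaled to the mean ratio of its plate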
Hit rule: 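First-pass picks had plate-scaled ratios over 1.5 for the siRNA assay, over 1.6 for the miRNA assay, or under 0.6; two distinct dsRNAs had to score alike on retest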
The deposit covers about 23,000 reagents; this is a random part of those with a known target gene and a result. Over the whole deposit, 199 (0.86%) got an active call. 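Plate-scaled ratios behind the calls are not deposited; printed light signals are raw; many rows marked increased or decreased are still called inactive.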 A number with no mark means an inactive call. A plus sign joins genes that one reagent is predicted to hit. Further read-outs or replicates are left out here. Reagent sequences are not shown. Not stated in the record: the direction of the score.

gene | PubChem SID | stable siRNA reporter change | miRNA reporter change | stable assay Renilla, run 1 (luminescence)
NTPase | SID104180553 | – | – | 9527
Afti (Aftiphilin) | SID104196232 | – | – | 8026
p38c (p38c MAP kinase) | SID104202296 | – | – | 3795
Gr39b (Gustatory receptor 39b) | SID104181640 | – | – | 4628
CG13073 | SID104189748 | – | reporter ratio lowered past the hit cutoff | 7722
CG13239 | SID104191486 | – | – | 7949
CG15919 | SID104186386 | – | – | 3328
Toll-4 | SID104183250 | – | – | 7837
plu (plutonium) | SID104187457 | – | – | 5918
Gbp1 (Growth-blocking peptide 1) | SID104186384 | – | – | 6630
polo | SID104191176 | – | – | 4331
polo | SID104201850 | – | – | 9598
ZnT41F (Zinc transporter 41F) | SID104184642 | – | – | 8106
CG8089 | SID104186866 | – | – | 6207
CG13014 | SID104199325 | – | – | 5472
CG13627 | SID104194421 | – | – | 7062
CR42745 (retired record) | SID104193548 | – | – | 6279
TBC1D5 (TBC1 domain family member 5) | SID104196213 | – | – | 8888
Or47b (Odorant receptor 47b) | SID104187284 | – | – | 5847
CG6569 | SID104195859 | – | – | 7701
CG14333 (retired record) | SID104194604 | – | – | 6588
CG14333 (retired record) | SID104195561 | – | – | 7831
Dci (Dodecenoyl-CoA delta-isomerase) | SID104188152 | – | – | 3451
ThrRS (Threonyl-tRNA synthetase) | SID104182635 | – | – | 9306
CG12133 | SID104185900 | – | – | 6912
dsx-c73A (doublesex cognate 73A) | SID104189227 | – | – | 4603
dsx-c73A (doublesex cognate 73A) | SID104189706 | – | – | 7950
dsx-c73A (doublesex cognate 73A) | SID104190221 | – | – | 7744
gw (gawky) | SID104196927 | – | reporter ratio lowered past the hit cutoff (active) | 4607
gw (gawky) | SID104196952 | – | – | 3776
CG30088 | SID104201431 | – | – | 8879
CG14246 | SID104194533 | – | – | 3323
CG18765 | SID104195184 | – | – | 6455
CG34025 | SID104187806 | – | – | 4639
CG10063 | SID104189480 | – | – | 6600
MCPH1 (Microcephalin) | SID104186101 | reporter ratio raised past the hit cutoff | reporter ratio raised past the hit cutoff | 14100
MCPH1 (Microcephalin) | SID104187100 | – | – | 5668
MCPH1 (Microcephalin) | SID104201976 | – | – | 4155
MCPH1 (Microcephalin) | SID104206846 | – | reporter ratio raised past the hit cutoff | –
Vm26Ac (Vitelline membrane 26Aac) | SID104182121 | – | – | 7590
Ror | SID104183206 | – | – | 7191
lwr (lesswright) | SID104180620 | reporter ratio lowered past the hit cutoff (active) | – | 8486
CG42788 | SID104195122 | – | – | 7757
CG42788 | SID104195931 | – | – | 8855
CG42788 | SID104195944 | – | – | 6947
Vps29 (Vacuolar protein sorting 29) | SID104180458 | – | – | 15654
CG30091 | SID104201463 | – | – | 8946
CG6225 | SID104195788 | – | – | 6411
pcm (pacman) | SID104200153 | – | – | 8294
Drsl1 (Drosomycin-like 1) | SID104201944 | – | – | 3088
SAK (Sak kinase) | SID104191671 | – | – | 6559
SAK (Sak kinase) | SID104202686 | – | – | 4215
ck (crinkled) | SID104183301 | – | – | 6870
Corin | SID104186610 | – | – | 5668
Vha36-1 (Vacuolar H[+] ATPase 36kD subunit 1) | SID104186890 | – | – | 9421
Osi12 (Osiris 12) | SID104191969 | – | – | 7444
Rel (Relish) | SID104196611 | – | – | 9092
CG13026 | SID104189698 | – | – | 7554
CG33285 | SID104191255 | – | – | 6823
CG14220 | SID104199369 | – | – | 6803
Stam (Signal transducing adaptor molecule) | SID104183236 | – | – | 11820
CG3777 | SID104198281 | – | – | 4427
CG1894 | SID104195188 | – | – | 6958
laf (labial associated factor) | SID104192038 | – | – | 7427
CG17650 | SID104180302 | – | – | 8815
CG42369 | SID104183036 | – | – | 8002
tsh (teashirt) | SID104183532 | – | – | 6343
CG13601 | SID104194396 | – | – | 10468
APC7 (Anaphase Promoting Complex subunit 7) | SID104197729 | – | – | 7652
CG5665 | SID104191575 | – | – | 6879
CG15756 | SID104199513 | – | – | 5152
CG14352 | SID104180174 | – | – | 8387
CREG (Cellular Repressor of E1A-stimulated Genes) | SID104196387 | – | – | 6618
Or92a (Odorant receptor 92a) | SID104196563 | – | – | 8149
CG10799 | SID104185794 | – | – | 5963
Cf2 (Chorion factor 2) | SID104180536 | – | – | 4967
Cf2 (Chorion factor 2) | SID104202372 | – | – | 3792
CG17002 | SID104184770 | – | – | 58831
CG4887 | SID104180462 | – | – | 7302
CG4887 | SID104201276 | – | – | 8979
CG33191 + Pif1B | SID104192498 | – | – | 5568
CG9166 | SID104187634 | – | – | 8130
CG14654 (retired record) | SID104192032 | – | – | 6624
